The record followed here is PubChem BioAssay AID248 (DTP/NCI, 2004).

The list does not hold the whole screen: it gathers tests that were run many times, whatever their T/C, doses with no T/C, and many T/C values between a quarter and a half above the control. Further doses and runs are listed elsewhere. T/C is the treated group as % of the vehicle group. Some entries give survivors of the animals treated and no T/C: the source files T/C as zero there, which appears to mark a toxic dose or a test without result, not a measured value. Some survivor counts are full or nearly so, which does not show that the dose was tolerated: the source hardly ever lists a survival T/C far under the control, and the zero likely stands for such cases as well. Survivors were counted at the toxicity check, usually on the fifth day, unless a day is given; later deaths do not show. Schedules are NCI's codes, taken here to give the interval after Q, in days (D) or hours (H), and the number of doses after X. Some schedules carry Z or #; the key to these is not given. Where survival is the endpoint, this PubChem deposit counts one and a half times the control or more as active, and values a quarter to a half above the control carry no call in these data; other NCI protocols may use other cut-offs. Some entries were tested several times; their values stand side by side, smallest first.

The test has as its system L1210 leukemia ip in BDF1 mice, survival T/C. As to the kind of experiment: NCI In Vivo Anticancer Drug Screen. Data for tumor model L1210 Leukemia (intraperitoneal) in B6D2F1 (BDF1) mice. The following applies: T/C endpoint: mean survival time, higher T/C = longer survival.
Where [1] appears, read: dose: 400.0 mg/kg/injection, schedule: Q01DX001 (ip), vehicle: saline.
Where [2] appears, read: dose: 100.0 mg/kg/injection, schedule: Q01DX009 (ip), vehicle: Klucel (hydroxypropylcellulose) (HPC).
The mark [3] stands for this setting: dose: 200.0 mg/kg/injection, schedule: Q01DX009 (ip), vehicle: Klucel (hydroxypropylcellulose) (HPC).

Take `N#C/C([SH2+])=C(/[SH2+])C#N.N#C/C([SH2+])=C(/[SH2+])C#N.N#C/C([SH2+])=C(/[SH2+])C#N.N#C/C([SH2+])=C(/[SH2+])C#N.[Co+3].[Co+3].c1ccc([P+](c2ccccc2)(c2ccccc2)c2ccccc2)cc1`: the survivor count under setting [1] is given as 2 of 6.

As to `Cc1ccc(NCCN(C)C)c2c(=O)c3ccccc3sc12`, the T/C is 125 % of control (dose: 21.0 mg/kg/injection, schedule: Q01DX Z (ip), vehicle: saline); 132 % of control (dose: 42.0 mg/kg/injection, schedule: Q01DX Z (ip), vehicle: saline); 149 % of control (dose: 50.0 mg/kg/injection, schedule: Q01DX Z (ip), vehicle: saline); 137 % of control (dose: 62.0 mg/kg/injection, schedule: Q01DX Z (ip), vehicle: saline); 139 % of control (dose: 75.0 mg/kg/injection, schedule: Q01DX Z (ip), vehicle: saline). Besides, the survivor count by setting is: (dose: 168.0 mg/kg/injection, schedule: Q01DX Z (ip), vehicle: saline) 0 of 6; (dose: 250.0 mg/kg/injection, schedule: Q01DX Z (ip), vehicle: carboxymethylcellulose (CMC)) 4 of 6; (dose: 300.0 mg/kg/injection, schedule: Q01DX001 (ip), vehicle: saline) 1 of 4; under setting [1], 1 of 4.

As to `C=CCOCC(O)CN(CC)c1ccccc1` (stereo unspecified), the survivor count under setting [2] is 3 of 6.

As to `COC(=O)CCCN1CC2C=C(C#N)C1C(C(=O)OC)C2` (stereo unspecified), under “dose: 75.0 mg/kg/injection, schedule: Q01DX001 (ip), vehicle: saline”, the survivor count was 6 of 6.

As for `COc1cccc2c1C(=O)c1c(O)c3c(c(O)c1C2=O)C[C@@](O)(/C(C)=N/N1CCCCC1)C[C@@H]3OC1CC(N)C(O)C(C)O1` (stereo partly specified), the T/C is, setting by setting: (dose: 1.0 mg/kg/injection, schedule: Q01DX009 (ip), vehicle: water) 126 and 127 % of control; (dose: 2.0 mg/kg/injection, schedule: Q01DX009 (ip), vehicle: water) 142 % of control; (dose: 2.0 mg/kg/injection, schedule: Q04DX003 (ip), vehicle: water) 128 and 134 % of control; (dose: 4.0 mg/kg/injection, schedule: Q04DX003 (ip), vehicle: water) 131 % of control; (dose: 8.0 mg/kg/injection, schedule: Q04DX003 (ip), vehicle: water) 127 % of control. The survivor count is reported as 4 of 10 (dose: 8.0 mg/kg/injection, schedule: Q01DX009 (ip), vehicle: water); 9 of 10 (dose: 12.5 mg/kg/injection, schedule: Q01DX009 (ip), vehicle: saline with Tween-80); 0 of 10 (dose: 25.0 mg/kg/injection, schedule: Q01DX009 (ip), vehicle: saline with Tween-80); 0 of 10 (dose: 50.0 mg/kg/injection, schedule: Q01DX009 (ip), vehicle: saline with Tween-80).

Turning to `NC(N)=Nc1ccc(C(=O)Oc2ccc([N+](=O)[O-])cc2[N+](=O)[O-])cc1`, the survivor count by setting is: (dose: 100.0 mg/kg/injection, schedule: Q04DX003 (ip), vehicle: Klucel (hydroxypropylcellulose) (HPC)) 0 of 6; under setting [3], 0 of 6; (dose: 200.0 mg/kg/injection, schedule: Q04DX003 (ip), vehicle: Klucel (hydroxypropylcellulose) (HPC)) 0 of 6; (dose: 400.0 mg/kg/injection, schedule: Q04DX003 (ip), vehicle: Klucel (hydroxypropylcellulose) (HPC)) 0 of 6.

In the case of `CN(C)c1ccc(/C=C/c2cc[n+](C)cc2)cc1`, the survivor count (dose: 32.0 mg/kg/injection, schedule: Q04DX003 (ip), vehicle: saline with Tween-80) is given as 1 of 6.

Regarding `CC(C)CN(C)N=Nc1ccc(C(N)=O)cc1`, the survivor count (dose: 400.0 mg/kg/injection, schedule: Q01DX001 (ip), vehicle: other) was 1 of 4.

Regarding `O=C(CCl)Nc1ccc(N=Nc2ccccc2)cc1`, the survivor count is, setting by setting: under setting [2], 3 of 6; under setting [3], 2 of 6; (dose: 400.0 mg/kg/injection, schedule: Q01DX009 (ip), vehicle: Klucel (hydroxypropylcellulose) (HPC)) 0 of 6.

Consider `C=CCCCCCCCCC(N)=O`, for which the T/C (dose: 100.0 mg/kg/injection, schedule: Q01DX009 (ip), vehicle: saline with Tween-80) is 149 % of control.
